Reference: paper PMC7297795
No constants are given. Whether binding was seen depends on the method and setting. Binding seen in cells or lysates may run through a third protein. Some results given as binding are weak or reduced against the parent protein; the word gives no strength.

Amino acid sequences for entries named in this document (tags omitted).
UniProt Q13547: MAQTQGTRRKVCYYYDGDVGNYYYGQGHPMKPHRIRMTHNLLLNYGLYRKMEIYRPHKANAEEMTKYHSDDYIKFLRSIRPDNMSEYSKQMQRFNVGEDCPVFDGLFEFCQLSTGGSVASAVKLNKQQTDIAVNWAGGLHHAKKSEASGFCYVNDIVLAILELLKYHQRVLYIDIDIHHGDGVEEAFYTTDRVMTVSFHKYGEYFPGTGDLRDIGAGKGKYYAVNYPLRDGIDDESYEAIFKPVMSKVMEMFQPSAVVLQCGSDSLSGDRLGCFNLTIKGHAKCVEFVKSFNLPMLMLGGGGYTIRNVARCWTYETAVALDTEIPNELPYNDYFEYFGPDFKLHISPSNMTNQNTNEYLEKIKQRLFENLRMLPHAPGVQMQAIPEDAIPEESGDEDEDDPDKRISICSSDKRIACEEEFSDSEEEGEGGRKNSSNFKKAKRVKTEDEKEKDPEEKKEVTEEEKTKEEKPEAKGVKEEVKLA
UniProt Q13887: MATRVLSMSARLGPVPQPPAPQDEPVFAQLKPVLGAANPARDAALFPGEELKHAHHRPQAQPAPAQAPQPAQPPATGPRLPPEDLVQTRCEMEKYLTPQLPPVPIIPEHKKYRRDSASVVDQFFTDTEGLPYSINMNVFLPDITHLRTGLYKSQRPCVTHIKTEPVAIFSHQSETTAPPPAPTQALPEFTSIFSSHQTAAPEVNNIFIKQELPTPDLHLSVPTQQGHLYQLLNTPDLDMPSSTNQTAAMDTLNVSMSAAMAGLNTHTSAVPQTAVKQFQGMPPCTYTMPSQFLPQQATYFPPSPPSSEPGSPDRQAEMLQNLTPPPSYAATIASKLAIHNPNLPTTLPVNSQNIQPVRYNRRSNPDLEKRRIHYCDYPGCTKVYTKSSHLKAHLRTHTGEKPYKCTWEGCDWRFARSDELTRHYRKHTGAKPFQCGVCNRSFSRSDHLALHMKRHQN

Legend:
[1] = target: HDAC1-Flag (UniProt Q13547); test: co-IP; exogenous: 293T cells transiently transfected with pCMV3-HDAC1-Flag and HA-KLF5 for 48 h; detected by western blotting; IgG as negative control, input as positive control
[2] = target: HDAC1 (histone deacetylase 1), endogenous (human (endogenous in 22RV1 and PC-3)) (UniProt Q13547); test: co-IP; endogenous proteins in 22RV1 and PC-3 cells; detected by western blotting; IgG as negative control, input as positive control

Substance | binding [1] | binding [2]
HA-KLF5 (from UniProt Q13887 1-457) | binds | 
KLF5 (Krüpple-like transcription factor 5), endogenous (from UniProt Q13887 1-457) |  | binds
